Experimental data: PubChem BioAssay AID504467 (National Center for Advancing Translational Sciences (NCATS), 2011)
Screen size: about 330,000 compounds; about 7,700 (2.3%) were called active. This list was built around the results that the source calls inconclusive (neither active nor inactive); the mix of calls is not that of the screen. The call rests on the fitted dose curve; in most records, active means well fitted inhibition curve with a large enough effect; inconclusive means small, poorly fitted or top-dose-only effect, or effect the other way; inactive means flat fitted curve, though single readings scatter. Potencies beside an inconclusive call are fits to weak or partial responses and may not hold up.

Experiment: qHTS screen for small molecules that inhibit ELG1-dependent DNA repair in human embryonic kidney (HEK293T) cells expressing luciferase-tagged ELG1; further: nearly all actives have a fitted effect of over 55% in size
Details: HEK293T ELG1-luciferase reporter, luminescence, 16 h, DNA damage induced by 5-fluorouridine; series mostly up to 46.1 µM
Outline: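 Luminescence from the luciferase reporter, measured 30 min after ONE-Glo reagent at room temperature, was the read-out. Beforehand, 2,000 cells per well were exposed for 16 hr at 37 °C to 5-fluorouridine together with compound or vehicle.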
Potency means the concentration at half of the fitted maximal effect.

Row | Structure (SMILES) | Potency
1 | Cc1nc(C)c(-c2ccc(SCc3cccc(F)c3)nn2)s1 | inconclusive: 20.6 µM [activator, single point]
2 | COc1ccc(/C=C/C(=O)C(C(N)=O)=C2SCCS2)cc1 | inconclusive: 16.4 µM [activator, single point]
3 | CC(=O)Nc1ccc(NC(=O)c2ccccc2-n2cnnn2)cc1 | inconclusive: 20.6 µM [activator, partial curve, poor fit]
4 | O=S(=O)(c1ccc(OCC2CO2)cc1)c1ccc(OCC2CO2)cc1 (stereo unspecified) | inactive
5 | O=C(Cc1ccccc1F)Nc1nc(-c2cccnc2)cs1 | inconclusive: 1.16 µM [inhibitor, single point]
6 | Nc1nc(Nc2ccccc2)nc2ccccc12 | inconclusive: 2.31 µM [activator, partial curve]
7 | Cc1ccc(CCS(=O)(=O)c2ccc(C(C)(C)C)cc2)cn1 | inconclusive: 2.91 µM [inhibitor, partial curve, poor fit]
8 | CCc1noc(C)c1C(=O)Nc1nc(-c2ccc(F)cc2)c(C)s1 | inconclusive: 25.9 µM [inhibitor, single point]
9 | COc1cccc(CNC(=O)c2nnn(CC(=O)Nc3ccc(C)c(C)c3)c2N)c1 | inconclusive: 32.6 µM [activator, partial curve, poor fit]
10 | C#CCn1cc(/C=C2\NC(=O)NC2=O)c2ccccc21 | inactive
11 | COC(=O)c1cccc(NC(=O)CSc2nc(C)cc(=O)[nH]2)c1 | inconclusive: 14.6 µM [activator, partial curve, poor fit]
12 | Cc1ccc(CS(=O)Cc2ccc(C(=O)NCc3ccccc3Br)o2)cc1 (stereo unspecified) | inactive
13 | CCc1noc(C)c1C(=O)Nc1nc(-c2ccccc2)c(C(C)=O)s1 | inconclusive: 10 µM [inhibitor, partial curve]
14 | Cc1ccc2cc(CN(CCN3CCOCC3)C(=O)NCc3ccccc3)c(=O)[nH]c2c1C | inconclusive: 13 µM [inhibitor, partial curve]
15 | O=c1c2ccccc2nnn1Cc1nnc(-c2ccccc2Br)o1 | inconclusive: 9.2 µM [activator, partial curve, poor fit]
16 | CCC(=O)c1ccc(OCC(=O)Nc2ccccc2C(=O)N2CCCCC2)cc1 | inconclusive: 16.4 µM [inhibitor, single point]
17 | O=c1[nH]c(N/N=C/c2ccccc2Br)nnc1-c1ccccc1 | inactive
18 | O=C(Nc1nnc(COc2ccc(Cl)cc2)s1)C1CCCO1 (stereo unspecified) | inactive
19 | CN1CCN(S(=O)(=O)c2cccc(C(=O)NCCOc3ccccc3)c2)CC1 | inconclusive: 0.231 µM [activator, single point]
20 | CCCCN(CCCC)C(=O)CSc1nnc(-c2cc(OC)c(OC)c(OC)c2)o1 | active: 10.3 µM
21 | CN(C)S(=O)(=O)n1cc(/C=C(\NC(=O)c2ccccc2)C(=O)N2CCCC2)c2ccccc21 | inconclusive: 23.1 µM [inhibitor, single point]
22 | COc1cc(C2c3c(oc4ccccc4c3=O)C(=O)N2Cc2ccco2)ccc1O (stereo unspecified) | inactive

Reformatted: three of the compounds above.
Cc1nc(C)c(-c2ccc(SCc3cccc(F)c3)nn2)s1
  Potency: inconclusive: 20.6 µM [activator, single point]
O=C(Nc1nnc(COc2ccc(Cl)cc2)s1)C1CCCO1 (stereo unspecified)
  Potency: inactive
CN(C)S(=O)(=O)n1cc(/C=C(\NC(=O)c2ccccc2)C(=O)N2CCCC2)c2ccccc21
  Potency: inconclusive: 23.1 µM [inhibitor, single point]

Further entries

Row | Structure (SMILES) | Potency
23 | Cc1nn2c(C)c(C(=O)Nc3ccccc3)cnc2c1C#N | inconclusive: 29.1 µM [inhibitor, partial curve, poor fit]
24 | O=C1CCn2nc(-c3ccc(Cl)cc3)cc2N1 | inconclusive: 16.4 µM [activator, partial curve]
25 | O=C(Cc1cccs1)Nc1nc(-c2ccc(F)c(F)c2)cs1 | inconclusive: 20.6 µM [inhibitor, single point]
26 | FC(F)(F)c1ccc(-c2nnc(-c3cccnc3)o2)cc1 | inconclusive: 35.5 µM [activator, single point]
27 | CC(C)NC(=O)C(=O)Nc1cc2c3c(c1)C(C)C(=O)N3CCC2 (stereo unspecified) | inconclusive: 29.1 µM [activator, single point]
28 | Cc1ccc(S(=O)(=O)NC(=O)NC(C)Cc2ccccc2)cc1 (stereo unspecified) | inconclusive: 18.3 µM [activator, partial curve, poor fit]
29 | CC(C)(C)C(=O)Cn1ncc(Cl)c(Cl)c1=O | inconclusive: 16.4 µM [inhibitor, partial curve, poor fit]
30 | CC(C)c1cc(NCCOCCO)n2c(nc3ccccc32)c1C#N | inconclusive: 14.6 µM [inhibitor, partial curve, poor fit]
31 | C[C@H]1CN([C@@H](C)CO)C(=O)c2cccc(NC(=O)Nc3ccc(C(F)(F)F)cc3)c2O[C@@H]1CN(C)S(=O)(=O)c1ccccc1 | inconclusive: 29.1 µM [inhibitor, single point]
32 | CC1Cc2ccccc2N1C(=O)COC(=O)CCc1nc2ccccc2c(=O)[nH]1 (stereo unspecified) | inactive
33 | Cc1noc(C)c1C(=O)OC(C)C(=O)Nc1ccc2c(c1)OCO2 (stereo unspecified) | inactive
34 | CCOC(=O)C1=C(N)OC2=C(C(=O)CCC2)C1c1ccccc1OCC (stereo unspecified) | inconclusive: 35.5 µM [inhibitor, single point]
35 | Cc1ccc(S(=O)(=O)N(C)CC(=O)N2CCN(Cc3ccccc3)CC2)cc1 | inconclusive: 2.06 µM [inhibitor, full curve, poor fit]
36 | CC1CCCCN1C(=O)COC(=O)c1cc([N+](=O)[O-])ccc1N1CCOCC1 (stereo unspecified) | inconclusive: 1.64 µM [activator, full curve]
37 | Cc1cccc(NC(=O)Nc2ccc([N+](=O)[O-])cc2)n1 | inconclusive: 14.6 µM [activator, partial curve]
38 | COc1cc2cc(C(=O)N/N=C/c3ccc(F)cc3)[nH]c2cc1OC | inconclusive: 32.6 µM [inhibitor, partial curve, poor fit]
39 | COc1ccccc1CCc1nnc(CCC(=O)NC(C)Cc2cccc(C)n2)o1 (stereo unspecified) | inconclusive: 0.651 µM [inhibitor, single point]
40 | COc1ccccc1N(O)C1CC(=O)N(c2ccc(Br)cc2)C1=O (stereo unspecified) | inactive
41 | Cc1ccc(CNC(=O)CCS(=O)(=O)c2ccc3c(c2)NC(=O)C(C)S3)cc1 (stereo unspecified) | inconclusive: 32.6 µM [inhibitor, single point]
42 | CC(=O)N1CCOc2ccc(S(=O)(=O)Nc3ccc(Cl)cn3)cc21 | inconclusive: 10.3 µM [activator, partial curve, poor fit]
43 | O=C1NC(=S)N/C1=C/c1cccnc1 | inconclusive: 8.2 µM [inhibitor, partial curve]
44 | O=C(CNC(=O)c1cccs1)OCC(=O)c1ccc(Cl)cc1 | inactive

Row | Structure (SMILES) | Potency
45 | Cc1ccc2c(c1)c1c(c(=O)n(-c3ccccc3C)c(=O)n1CC(=O)NCC1CCCO1)n2C (stereo unspecified) | inactive
46 | CCOC(=O)[C@H]1[C@H]2COc3ccc(OC)cc3[C@H]2N2C(=O)CNC(=O)[C@@]12C | inactive
47 | O=C1C2C(c3ccccc3)CC=CC2[C@H](c2ccc(C(F)(F)F)cc2)N1Cc1ccccc1 (stereo partly specified) | inconclusive: 16.4 µM [inhibitor, single point]
48 | CCOC(=O)C1CCN(C(=O)c2cc(COc3ccc(F)cc3F)on2)CC1 | inconclusive: 20.6 µM [activator, partial curve]
49 | Cc1cccc(C(=O)n2c(=S)nc3ccccn32)c1 | inconclusive: 0.82 µM [activator, full curve]
50 | Nc1ccccc1SC/C=C/CSc1ccccc1N | inactive
51 | CCN1CCN(c2ccc(S(=O)(=O)N3CCOCC3)cc2NC(=O)C(C)Oc2ccc(Cl)cc2)CC1 (stereo unspecified) | inconclusive: 29.1 µM [inhibitor, single point]
52 | Cc1cccc(-n2ncc3c(NCCCn4ccnc4)ncnc32)c1 | inconclusive: 18.4 µM [activator, partial curve]
53 | COc1ccccc1NC(CC(=O)c1ccccc1)C(=O)OCC(=O)c1ccc(C)c(C)c1 (stereo unspecified) | inconclusive: 2.59 µM [activator, full curve]
54 | CCN(Cc1nc(-c2ccccc2)no1)C(=O)c1ccco1 | inactive
55 | COc1ccc(O)c(/C=N/Nc2nc3ccccc3[nH]2)c1 | inconclusive: 20.6 µM [activator, single point]
56 | O=C(Nc1ccc(N2CCN(C(=O)c3ccccc3)CC2)c(Cl)c1)c1ccco1 | active: 11.6 µM
57 | O=C(CN1C(=O)CCS(=O)(=O)c2ccccc21)Nc1ccc(Cl)cc1 | inactive
58 | O=C(c1ccccc1)N1CCN(c2ccc([N+](=O)[O-])c(NCc3cccnc3)c2)CC1 | inconclusive: 25.9 µM [inhibitor, partial curve, poor fit]
59 | Cc1ccc(S(=O)(=O)N2CCN(C(=O)c3cc(S(=O)(=O)N(C)C)ccc3N3CCCC3)CC2)c(C)c1 | inconclusive: 6.51 µM [inhibitor, full curve, poor fit]
60 | Cc1ccc2nc3c(nc2c1C)C(O)=C3O | inconclusive: 25.9 µM [inhibitor, partial curve, poor fit]
61 | CCN(CC)c1ccc(C(=O)OCC(=O)N(C(C)C)C(C)C)cc1 | inconclusive: 6.51 µM [inhibitor, partial curve, poor fit]
62 | Nc1nc2ccccc2n1/N=C/c1ccc(-c2ccccc2)o1 | inconclusive: 10.3 µM [activator, partial curve]
63 | COc1ccc(Cn2c(O)c(/C=N/NC(=O)c3cccnc3)c3ccccc3c2=O)cc1 | active: 18.3 µM
64 | C[C@H](CO)N1C[C@H](C)[C@@H](CN(C)C(=O)Nc2ccc(C(F)(F)F)cc2)Oc2ccc(NC(=O)CCC(F)(F)F)cc2C1=O | inactive
65 | COc1ccc(CNC(=S)N/N=C(/C)c2ccccc2)cc1 | inconclusive: 18.3 µM [activator, partial curve]
66 | O=C(NNc1nc2cc3c(cc2s1)OCO3)c1ccccc1 | inconclusive: 23.1 µM [activator, single point]
